{
  "source": "paper PMC9963772",
  "binders": {"B1": {"name": "Copper metallochaperone Atx1 of Paracoccidioides brasiliensis, recombinant (protein, UniProt C1G2I6 1-81)", "chain": "MASVEHQYKFNISMSCGGCSGAVERVLKKLDGVKSYTVNLESQTATVVADPSLEYDTVLSTIKKTGKTVNSGEADGEPKDV"}},
  "target": "T1, Cytochrome b5 of Paracoccidioides brasiliensis, recombinant (Paracoccidioides brasiliensis) (UniProt C1G8H3)",
  "T1 sequence": "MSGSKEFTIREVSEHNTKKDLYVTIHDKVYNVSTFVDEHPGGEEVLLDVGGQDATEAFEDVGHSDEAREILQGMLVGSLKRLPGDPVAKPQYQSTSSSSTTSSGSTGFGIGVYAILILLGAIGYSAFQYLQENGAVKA",
  "test": "far-Western, overlay or dot blot; 20 ug recombinant PbCyb5 after SDS-PAGE on nitrocellulose; incubated 1 h at room temperature with purified recombinant PbAtx1 at 35 ug/mL in PBS, 5% non-fat milk, 0.1% Tween 20; detected with anti-PbAtx1 polyclonal antibodies; both purified",
  "note": "No constants are given. Whether binding was seen depends on the method and setting. Some results given as binding are weak or reduced against the parent protein; the word gives no strength.",
  "data": [
    {"binder": "B1", "values": [
      {"measurement": "binding", "value": "binds"}
    ]}
  ]
}
